Paper PMC12548414
Out of some 1,600 compounds screened, about 20 (1%) showed an effect of 50% or more. The list shows a part of the results.

Tested on: T1, E. coli pLC1021 (luc-trpAt trans-translation reporter)
T1 construct: pLC1021 luc-trpAt reporter strain
Design: species or system Escherichia coli pLC1021; luc-trpAt non-stop luciferase reporter; luminescence rises when trans-translation is inhibited; normalized to KKL-35 and DMSO
Settings: reporter signal, KKL-35 = 100%; rise means trans-translation inhibition; 2 h, 20 µM
Summary of the method: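 Cells carrying the non-stop luc-trpAt reporter were exposed to 20 µM compound for 2 h at room temperature, then Bright-Glo was added and luminescence read at 560 nm after 10 min. Signals were normalised per plate to DMSO and 20 µM KKL-35 wells. Hits: activity one SD above the median; ≥2 biological repeats averaged.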

Row | Structure (SMILES) | % activation [%]
1 | COC(=O)[C@@H](NC(=O)c1cc(COc2c(F)cccc2F)on1)c1ccccc1 [KKL-0496] | 8
2 | O=[N+]([O-])c1c(O)nc(/C=C/c2cccc3ccccc23)nc1O [KKL-0765] | 0
3 | Cc1ccc(-n2cc(CNCCc3nc(O)c4ccccc4n3)c(-c3cccc(C)c3)n2)cc1 [KKL-1180] | 0
4 | O=C(Nc1ccc(N2CCN(Cc3ccccc3F)CC2)cc1)c1ccc([N+](=O)[O-])o1 [KKL-1302] | 0
5 | O=C(Oc1ccccc1)c1ccc(COC(=O)c2ccco2)cc1 [KKL-1585] | 0
6 | CSc1ncc(CNC2CCCc3c2cnn3-c2ccc(C(C)(C)C)cc2)cn1 (stereo not drawn) [KKL-0317] | 0
7 | Cc1[nH]c2ccccc2c1/C=C1\SC(=N)N(c2nccs2)C1=O [KKL-1143] | 6
8 | O=C1/C(=C/c2ccccc2[N+](=O)[O-])COc2ccccc21 [KKL-0830] | 0
9 | COc1cc([N+](=O)[O-])ccc1NC(=O)c1cc(Cl)ccc1O [KKL-1442] | 0
10 | CCN1C(=O)c2cccc3cc([N+](=O)[O-])cc(c23)C1=O [KKL-1374] | 0
11 | [O-][n+]1onc2c3cc(-c4ccccc4)nnc3ccc21 [KKL-0875] | 8
12 | CC(C)Oc1ccc(-c2nnc(-c3ccc4c(c3)CCNCC4)s2)cc1Cl [KKL-1840] | 4
13 | COc1ccc2c(c1)CCCN2Cc1ccnc(N2CCCC2)n1 [KKL-0504] | 4
14 | O=C(O)CCc1nc2ccccc2oc1=O [KKL-1782] | 0
15 | CSc1ncc(C(=O)Nc2ccc(Oc3ccc4c(c3)OCO4)cc2)cn1 [KKL-0931] | 7
16 | O=C(CSc1nnc(-c2ccccc2Br)o1)N1CCc2ccccc2C1 [KKL-0388] | 0
17 | CSCCC(=O)N1CCC(C(=O)Nc2ccc(-c3cccc(C)c3)cc2)CC1 [KKL-1148] | 1
18 | CN(C)CCCNc1cc(C(C)(C)C)nc2c(-c3ccc(Cl)cc3)cnn12 [KKL-0993] | 17
19 | Cc1ccc(C(=O)/C=C/c2ccccc2[N+](=O)[O-])cc1 [KKL-0973] | 0
20 | O=C(Oc1cccc2cccnc12)c1ccccc1 [KKL-0450] | 3
21 | Cc1ccc2[nH]c(NCc3ccccc3)nc2c1 [KKL-1091] | 0
22 | CC1CCc2onc(C(=O)NC3CCCc4c3cnn4Cc3ccccc3Cl)c2C1 (stereo not drawn) [KKL-0348] | 0
23 | Cc1nn(-c2ccccc2)c(O)c1N=Nc1nccs1 [KKL-0953] | 27
24 | CCCc1cc(C(C)=O)ccc1OCCCON1C(=N)N=C(N)NC1(C)C [KKL-1788] | 0

3 entries already listed, ordered by count of non-hydrogen atoms, smallest number first:
Row | Structure (SMILES) | % activation [%]
11 | [O-][n+]1onc2c3cc(-c4ccccc4)nnc3ccc21 [KKL-0875] | 8
24 | CCCc1cc(C(C)=O)ccc1OCCCON1C(=N)N=C(N)NC1(C)C [KKL-1788] | 0
17 | CSCCC(=O)N1CCC(C(=O)Nc2ccc(-c3cccc(C)c3)cc2)CC1 [KKL-1148] | 1
